Results as given in patent publication US20090074739A1.
Results are given in words; binding and its absence hold for the method and conditions named. Some results given as binding are weak or reduced against the parent protein; the word gives no strength.

Protein sequences, listed by entry. Tags and fused reporters are not part of them. Lines headed by an entry give the natural chain unless they say otherwise; changes in a name come on top. Residues count along the entry.
UniProt P00747: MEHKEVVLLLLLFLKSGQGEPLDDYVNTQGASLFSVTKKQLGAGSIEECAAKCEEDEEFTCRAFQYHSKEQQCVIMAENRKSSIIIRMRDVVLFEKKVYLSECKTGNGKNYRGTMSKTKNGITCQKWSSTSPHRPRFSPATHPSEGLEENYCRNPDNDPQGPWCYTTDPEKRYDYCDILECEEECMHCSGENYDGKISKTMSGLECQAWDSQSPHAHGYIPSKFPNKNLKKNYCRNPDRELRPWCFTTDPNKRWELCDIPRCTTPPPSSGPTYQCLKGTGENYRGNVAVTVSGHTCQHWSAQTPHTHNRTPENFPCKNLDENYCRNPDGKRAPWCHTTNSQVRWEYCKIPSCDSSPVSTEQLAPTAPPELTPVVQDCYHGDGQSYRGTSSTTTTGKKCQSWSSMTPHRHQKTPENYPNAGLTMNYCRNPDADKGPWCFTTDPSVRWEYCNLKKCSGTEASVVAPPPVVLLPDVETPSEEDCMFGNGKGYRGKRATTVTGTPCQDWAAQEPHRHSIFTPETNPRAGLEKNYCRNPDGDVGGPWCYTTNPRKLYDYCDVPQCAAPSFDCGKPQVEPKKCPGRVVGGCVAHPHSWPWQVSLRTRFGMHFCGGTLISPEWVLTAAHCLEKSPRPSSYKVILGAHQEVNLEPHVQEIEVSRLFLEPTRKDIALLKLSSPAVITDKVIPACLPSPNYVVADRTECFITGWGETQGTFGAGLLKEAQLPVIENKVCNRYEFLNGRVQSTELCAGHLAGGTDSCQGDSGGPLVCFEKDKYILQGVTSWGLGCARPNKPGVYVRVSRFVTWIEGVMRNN
UniProt P00779, residues 27-440: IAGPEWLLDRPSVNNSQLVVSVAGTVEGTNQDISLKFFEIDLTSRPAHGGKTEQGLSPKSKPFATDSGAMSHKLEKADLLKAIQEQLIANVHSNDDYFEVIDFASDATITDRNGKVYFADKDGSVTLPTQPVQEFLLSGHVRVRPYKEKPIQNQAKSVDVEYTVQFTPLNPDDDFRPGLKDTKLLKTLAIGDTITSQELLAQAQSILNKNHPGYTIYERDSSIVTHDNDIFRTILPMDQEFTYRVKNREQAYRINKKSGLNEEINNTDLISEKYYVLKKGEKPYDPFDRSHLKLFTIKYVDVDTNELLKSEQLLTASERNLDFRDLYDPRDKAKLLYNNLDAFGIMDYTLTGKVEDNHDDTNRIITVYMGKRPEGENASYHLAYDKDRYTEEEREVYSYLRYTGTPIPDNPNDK

Molecular target: recombinant human miniplasminogen (human) (UniProt P00747)
Experiment: incubation in culture supernatant, complex read out by amidolytic activity on chromogenic substrate S2403

In the case of “streptokinase (from UniProt P00779 27-440)”, the binding is reported as “binds”.
